Measured values reported in patent US12318399B2 (priority 2022, dated 2025).
Some results were stated once for a whole list of compounds, not compound by compound.

Tested on: ovarian cancer organoids
Experiment: Patient-derived ovarian cancer organoid cell viability
Format: cell-based, human
Conditions: pH 4
Method: Development of patient derived organoids: The patient derived organoids were created as follows: the patient's tissue sample was collected after surgery and bathed in Hank's Balanced Salt Solution (HBSS) (Hyclone, SH30031.02) with 1% Pencillin/Streptomycin (P/S) (Life Technologies, 15070-063) on ice. Then the sample was washed three times with Dulbecco's phosphate-buffered saline (DPBS) and 1% P/S on a shaker (70 rpm) for 15 minutes each. The tissue was then transferred into a presterilized cell-culture hood to mince it finely with a sterile blade. All minced parts were then digested in an enzyme named Accumax (Innovative Cell Technologies Inc., AM105-500) for 2.5 hours at room temperature. After 2.5-hour incubation, the whole digested tissue mince was transferred in another enzyme, TrypLE express, (Gibco, 12604-021) for another 45 minutes in a 37° C. water bath. During this time the solution was continuously agitated in every 5 minutes interval. […] Upon checking under hemocytometer cell number was calculated and processed for organoid culture. […]
For the Ascites samples, we centrifuged the ascites fluid at 1000 rpm for 10 minutes at room temperature to get the cell suspension. […] Once samples were created, they were ready for testing, which included treating the organoids with cannabis extract. […]

## C=C(C)[C@@H]1CCC(C)=C[C@H]1c1c(O)cc(CCCCC)cc1O [CBD isolate, cannabidiol]
  % viability: < 1%
